Test: Autofluorescence of compound in DSE-FRET

SN 38
自家蛍光 (autofluorescence) @ 10 mM Run1 (Run1, 10 mM as printed): 2.8
自家蛍光 (autofluorescence) @ 10 mM Run2 (Run2, 10 mM as printed): 3.0
自家蛍光 (autofluorescence) @ 10 mM Avg. (average, 10 mM): 2.9

Reference: publication PMC7734590, “Identification of a Selective RelA Inhibitor Based on DSE-FRET Screening Methods” (International Journal of Molecular Sciences, 2020)
